According to patent publication US10309973 (dated 2019):

What was measured:
[1] = Fmoc solid-phase peptide synthesis; Rink Amide ChemMatrix; PyBOP/HOBt/DIEA; HCTU/NMM; HBTU/HOBt/DIEA; conditions: whole synthesis, scale of the general procedure 0.0633 mmol
[2] = Fmoc solid-phase peptide synthesis; 2-chlorotrityl-Cys(S-Trt) preloaded resin; PyBOP/HOBt/DIEA; HCTU/NMM; HBTU/HOBt/DIEA; conditions: whole synthesis, scale of the general procedure 0.0633 mmol
[3] = general procedure: Fmoc solid-phase peptide synthesis; Fmoc-Cys(Trt)-Rink resin; 2-chlorotrityl-Cys(S-Trt) preloaded resin; Rink Amide ChemMatrix; PyBOP/HOBt/DIEA; HCTU/NMM; HBTU/HOBt/DIEA; conditions: 214 nm
[4] = Fmoc solid-phase peptide synthesis; chlorotrityl resin preloaded with Cys(Trt); PyBOP/HOBt/DIEA; HCTU/NMM; HBTU/HOBt/DIEA; conditions: whole synthesis, scale of the general procedure 0.0633 mmol

Ac-Ala-Cys-Asn-Phe-Asn-Asp-Val-Thr-Thr-Arg-Leu-Arg-Glu-Asn-Glu-Leu-Thr-Tyr-Tyr-Cys-Ala-Ala-Lys-NH2 (SEQ ID NO: 11) (Cys^2-Cys^20-disulfide)
final purity (method not given) [1]: >93%

Ac-Asn-Lys-Ala-Trp-Lys[N^ε-(1-deoxy-D-glucitol-1-yl)]-Phe-Glu-His-Ala-Asn-Phe-Asn-Asp-Cys-OH
final purity (method not given) [2]: >95% | crude HPLC purity ([3]; late stage modification step): 70% | crude HPLC purity ([3]; whole synthesis, scale of the general procedure 0.0633 mmol): 58%

Ac-{Ala^39,45,LyS^38(N^ε-ivDde),Cys^50}hCD59(37-50)
final HPLC purity [4]: >95%
